For this test, the target named is T1, Flag-tagged DDRGK1 (human) (UniProt Q96HY6).
T1 sequence: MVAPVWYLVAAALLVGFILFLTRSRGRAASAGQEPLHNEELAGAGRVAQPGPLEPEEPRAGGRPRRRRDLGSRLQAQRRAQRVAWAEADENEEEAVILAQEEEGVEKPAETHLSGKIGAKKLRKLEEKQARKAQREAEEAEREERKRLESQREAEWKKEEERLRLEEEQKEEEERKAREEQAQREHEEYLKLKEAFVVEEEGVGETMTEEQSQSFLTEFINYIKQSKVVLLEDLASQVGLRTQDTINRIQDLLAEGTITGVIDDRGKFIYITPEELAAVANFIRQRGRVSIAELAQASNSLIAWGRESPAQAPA
Briefly: co-IP; 293T cells transfected with Flag-tagged construct; lysed in NP-40 lysis buffer; extract incubated with M2 anti-Flag resin overnight at 4°C; associated endogenous protein detected by immunoblotting.

The chains behind the UniProt entries cited, without tags or fusion partners.
UniProt P25963: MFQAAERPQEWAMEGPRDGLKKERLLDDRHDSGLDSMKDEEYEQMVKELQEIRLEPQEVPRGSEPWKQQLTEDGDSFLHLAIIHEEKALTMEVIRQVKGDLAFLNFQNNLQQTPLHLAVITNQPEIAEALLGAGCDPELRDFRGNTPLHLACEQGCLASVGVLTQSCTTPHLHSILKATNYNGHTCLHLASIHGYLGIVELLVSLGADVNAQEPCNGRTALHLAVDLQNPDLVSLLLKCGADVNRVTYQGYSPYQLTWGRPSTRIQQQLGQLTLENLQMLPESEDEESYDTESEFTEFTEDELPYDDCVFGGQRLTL

Results are given in words; binding and its absence hold for the method and conditions named. In cells and extracts the contact can be indirect. Some binding calls cover weakened binding; strength is not graded here. Sequences can lack the tags named with a protein.

Turning to “endogenous IκBα (from UniProt P25963 1-317)”, the binding entry is “binds”.

The record behind these values is PMC3651127.
